# Percent effect of library compounds

Amino acid sequences for entries named in this document (tags omitted). Residues count along the entry.
UniProt I6X8D2, whole entry: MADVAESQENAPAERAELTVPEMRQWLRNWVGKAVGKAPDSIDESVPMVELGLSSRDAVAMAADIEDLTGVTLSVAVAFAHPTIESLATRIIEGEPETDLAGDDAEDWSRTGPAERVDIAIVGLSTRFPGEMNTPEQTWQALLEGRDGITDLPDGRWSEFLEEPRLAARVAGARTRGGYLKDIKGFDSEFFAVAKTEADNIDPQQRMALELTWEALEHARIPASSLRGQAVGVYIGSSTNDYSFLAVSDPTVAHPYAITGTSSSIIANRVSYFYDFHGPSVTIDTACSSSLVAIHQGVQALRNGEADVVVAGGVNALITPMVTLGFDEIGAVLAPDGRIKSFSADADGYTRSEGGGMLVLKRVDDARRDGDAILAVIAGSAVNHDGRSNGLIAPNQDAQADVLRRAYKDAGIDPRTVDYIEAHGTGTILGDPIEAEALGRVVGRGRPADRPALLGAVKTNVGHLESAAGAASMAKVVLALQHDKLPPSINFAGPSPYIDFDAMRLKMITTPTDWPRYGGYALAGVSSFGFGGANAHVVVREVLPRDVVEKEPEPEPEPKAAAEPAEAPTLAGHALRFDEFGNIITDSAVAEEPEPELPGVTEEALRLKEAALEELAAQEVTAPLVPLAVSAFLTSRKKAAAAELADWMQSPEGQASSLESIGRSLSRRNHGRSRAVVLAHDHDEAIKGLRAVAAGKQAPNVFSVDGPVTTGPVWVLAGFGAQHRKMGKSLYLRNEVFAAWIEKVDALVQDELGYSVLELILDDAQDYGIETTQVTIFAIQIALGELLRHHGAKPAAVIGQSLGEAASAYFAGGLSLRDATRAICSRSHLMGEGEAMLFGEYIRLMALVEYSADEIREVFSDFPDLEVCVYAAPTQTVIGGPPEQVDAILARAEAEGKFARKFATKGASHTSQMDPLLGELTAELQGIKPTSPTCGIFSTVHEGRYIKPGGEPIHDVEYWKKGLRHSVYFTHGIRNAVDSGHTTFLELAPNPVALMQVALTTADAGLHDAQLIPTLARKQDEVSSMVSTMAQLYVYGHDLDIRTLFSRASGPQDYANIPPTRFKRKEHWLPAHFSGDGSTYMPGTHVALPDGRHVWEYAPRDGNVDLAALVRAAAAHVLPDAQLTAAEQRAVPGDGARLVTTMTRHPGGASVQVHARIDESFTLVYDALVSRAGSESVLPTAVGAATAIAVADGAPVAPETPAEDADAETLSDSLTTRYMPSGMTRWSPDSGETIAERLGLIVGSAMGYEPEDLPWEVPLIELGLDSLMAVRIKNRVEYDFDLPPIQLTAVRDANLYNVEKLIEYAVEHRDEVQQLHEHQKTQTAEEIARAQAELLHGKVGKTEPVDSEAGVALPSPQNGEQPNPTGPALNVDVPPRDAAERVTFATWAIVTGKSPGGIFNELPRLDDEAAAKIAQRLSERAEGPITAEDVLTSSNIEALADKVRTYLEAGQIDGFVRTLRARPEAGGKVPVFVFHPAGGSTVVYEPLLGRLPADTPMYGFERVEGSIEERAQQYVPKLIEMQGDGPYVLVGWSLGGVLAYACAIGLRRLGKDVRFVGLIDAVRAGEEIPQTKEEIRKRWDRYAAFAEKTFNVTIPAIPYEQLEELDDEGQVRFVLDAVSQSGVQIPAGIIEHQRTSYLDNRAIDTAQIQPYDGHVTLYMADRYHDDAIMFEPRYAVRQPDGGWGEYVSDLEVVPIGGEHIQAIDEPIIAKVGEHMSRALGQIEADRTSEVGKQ
UniProt Q8IDJ8, 1-583: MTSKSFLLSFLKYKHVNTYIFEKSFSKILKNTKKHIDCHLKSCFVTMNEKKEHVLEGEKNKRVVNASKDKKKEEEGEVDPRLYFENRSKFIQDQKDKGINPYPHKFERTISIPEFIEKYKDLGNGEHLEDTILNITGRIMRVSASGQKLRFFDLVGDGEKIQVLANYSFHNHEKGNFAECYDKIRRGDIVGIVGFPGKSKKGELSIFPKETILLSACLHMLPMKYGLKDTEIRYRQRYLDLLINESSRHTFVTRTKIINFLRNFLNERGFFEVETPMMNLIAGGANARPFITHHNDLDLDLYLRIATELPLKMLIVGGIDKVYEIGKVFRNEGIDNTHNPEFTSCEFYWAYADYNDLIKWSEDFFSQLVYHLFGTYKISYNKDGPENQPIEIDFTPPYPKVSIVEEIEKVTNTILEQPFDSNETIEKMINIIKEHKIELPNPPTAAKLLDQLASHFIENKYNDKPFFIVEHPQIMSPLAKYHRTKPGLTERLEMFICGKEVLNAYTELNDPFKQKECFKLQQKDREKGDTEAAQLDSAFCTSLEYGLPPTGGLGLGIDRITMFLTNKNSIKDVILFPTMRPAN
UniProt P9WNZ1, whole entry: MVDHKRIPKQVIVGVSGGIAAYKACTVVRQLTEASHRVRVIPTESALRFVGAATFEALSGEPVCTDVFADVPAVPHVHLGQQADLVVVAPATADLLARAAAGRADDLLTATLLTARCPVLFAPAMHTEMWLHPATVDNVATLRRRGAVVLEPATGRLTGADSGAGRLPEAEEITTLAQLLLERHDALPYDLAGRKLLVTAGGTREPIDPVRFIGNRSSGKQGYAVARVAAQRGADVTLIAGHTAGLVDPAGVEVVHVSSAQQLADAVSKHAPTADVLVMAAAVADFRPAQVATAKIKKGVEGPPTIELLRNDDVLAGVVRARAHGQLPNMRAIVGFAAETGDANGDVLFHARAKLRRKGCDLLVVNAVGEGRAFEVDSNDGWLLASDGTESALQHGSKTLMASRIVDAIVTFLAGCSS

Measurements from “University of Dundee, Small-Polar-MMV Screening Library” (2021), ChEMBL document CHEMBL3988442.

Toxoplasma: 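Assay of Toxoplasma gondii numbers, read through their beta-galactosidase reporter with a colour substrate. Concentration: 10 µM. The record gives no direction; the compounds picked for IC50 retests had high values, so higher reads as fewer parasites. About 67,000 compounds were tested under these conditions; 0.38% (about 260) showed 50% or more at least once.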
Pks13 thioesterase: 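Enzyme assay of the thioesterase domain of polyketide synthase 13; the read-out is not stated. Target: Polyketide synthase Pks13, Mycobacterium tuberculosis (UniProt I6X8D2). Concentration: 30 µM. Higher reads as stronger inhibition (inferred from which compounds were picked for retests). Of about 67,000 compounds tested this way, about 300 (0.46%) reached 50% or more in at least one test.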
PfKRS1: 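Enzyme assay of the cytosolic lysyl-tRNA synthetase in 384-well plates, read by luminescence. Target: Lysine-tRNA ligase, Plasmodium falciparum 3D7 (UniProt Q8IDJ8). Tested at 30 µM. Higher reads as stronger inhibition, judged from the few compounds that gave an IC50. Size under these conditions: about 69,000 compounds, about 49 of them at 50% or above in at least one test.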
CoaBC: 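Coenzyme A biosynthesis protein CoaBC, Mycobacterium tuberculosis (UniProt P9WNZ1). Enzyme assay of CoaBC with a phosphate dye (Biomol Green) read at 650 nm. Compounds at 30 µM. Higher reads as stronger inhibition, judged from the few compounds that gave an IC50. Most strong results did not repeat in a second test. About 67,000 compounds were tested under these conditions; 0.06% (about 40) showed 50% or more at least once.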

Results are given as percent effect. The controls that fix the scale are not given in the record; negative values are as filed. Compounds were drawn at random from those tested, without regard to their results.

COCCNC(=O)C(C)n1cc(Br)cn1 (stereo not given) read Toxoplasma: 8.359%; Pks13 thioesterase: -8.192%; PfKRS1: 3.283%; CoaBC: 1.818%.
Cc1nn(CC(=O)O)c2nccc(-c3ccc(F)cc3)c12 read Toxoplasma: -1.522%; Pks13 thioesterase: -1.842%; PfKRS1: -0.6407%; CoaBC: 0.9639%.
O=C(NC1CC1)c1cc(C2CCCN(Cc3ccccn3)C2)no1 (stereo not given) read Toxoplasma: 7.496%; Pks13 thioesterase: 4.618%; PfKRS1: 1.413%; CoaBC: 3.09%.
[H][C@]12CCN(C(C)=O)C[C@@]1([H])OCCN(C(=O)c1ccco1)C2 read Toxoplasma: -1.941%.
CC(C)c1noc(CN(C)C(=O)C2COc3ccccc3C2)n1 (stereo not given) read Toxoplasma: -4.461%; Pks13 thioesterase: -1.584%; PfKRS1: 1.459%; CoaBC: -1.327%.
N#Cc1cccc(CS(=O)(=O)NC(Cc2ccccc2)C(N)=O)c1 (stereo not given) read Toxoplasma: -7.673%; Pks13 thioesterase: -21.38%; PfKRS1: -3.927%; CoaBC: 1.485%.
c1ccc2c(c1)CCN2c1nc(N2CCOCC2)c2nn[nH]c2n1 read Toxoplasma: 18.37%; Pks13 thioesterase: 3.78%; PfKRS1: 5.666%; CoaBC: 10.66%.
CO[C@H]1CNC[C@@H]1NC(=O)c1cc(C)nc2ccc(C)cc12 read Toxoplasma: 10.47%; Pks13 thioesterase: -1.058%; PfKRS1: -2.73%; CoaBC: -41.65%.
Cn1cc(C2CCCN2C(=O)COC2CCCCC2)cn1 (stereo not given) read Toxoplasma: -0.9502%; Pks13 thioesterase: -17.2%; PfKRS1: 2.297%; CoaBC: 0.6242%.
CC(C)N1CCC2(CC1)CC(CC(N)=O)c1ccc(F)cc12.O=C(O)C(F)(F)F (stereo not given) read Toxoplasma: -5.439%.
COc1ccc(S(=O)(=O)NCCC(O)c2cc(C)oc2C)c(C)c1 (stereo not given) read Toxoplasma: 11.58%; Pks13 thioesterase: -23.09%; PfKRS1: 2.388%; CoaBC: -2.326%.
CCOC(=O)C1CCN(C(=O)c2cc(Br)ccc2-n2cnnn2)CC1 read Toxoplasma: 24.47%; Pks13 thioesterase: 19.28%; PfKRS1: 3.095%; CoaBC: 1.695%.
O=S(=O)(NC1=NCN(CCc2ccccc2)CN1)c1ccc(F)cc1 read Toxoplasma: 4.61%; Pks13 thioesterase: -1.828%; PfKRS1: -0.3394%; CoaBC: -2.273%.
COc1cccc(OCCCc2cncc(C(N)=O)c2)c1 read Toxoplasma: 12.52%; Pks13 thioesterase: 16.51%; PfKRS1: 4.723%; CoaBC: 7.477%.
Cn1cc(N2CC3(CCN(Cc4ccccc4)CC3)OCC2=O)cn1.O=C(O)C(F)(F)F read Toxoplasma: 32.21%.
CCOc1ccccc1CC(=O)N1C[C@H](C2CC2)[C@@H](N)C1 read Toxoplasma: 2.332%; Pks13 thioesterase: -0.6424%; PfKRS1: 0.04322%; CoaBC: 3.14%.
CCc1nc(CN(C)C(=O)c2ccc(OCCCOC)nc2)cs1 read Toxoplasma: -2.442%; Pks13 thioesterase: -0.05515%; PfKRS1: -1.532%; CoaBC: 4.545%.
CC(C)c1nn(C)c(N2CCOCC2)c1CN[C@H](C)CO read Toxoplasma: -5.461%; Pks13 thioesterase: -7.894%; PfKRS1: 8.378%; CoaBC: 2.504%.
CC(C)NC(=O)CCNC(=O)c1c(Br)c2ccccc2n1C read Toxoplasma: -3.448%; Pks13 thioesterase: -10.45%; PfKRS1: 10.5%; CoaBC: 1.935%.
CC(C)[C@@H]1CN(Cc2ccccn2)C[C@H]1NS(=O)(=O)N(C)C read Toxoplasma: 4.401%; Pks13 thioesterase: -7.468%; PfKRS1: -0.06658%; CoaBC: -0.9153%.
CN(C)C(=O)C1CCCN1CCCNC(=O)c1ccccc1F (stereo not given) read Toxoplasma: 4.598%; Pks13 thioesterase: -12.56%; PfKRS1: 4.834%; CoaBC: -7.463%.
CN(C)C(=O)Cn1cnc2c(Br)cccc2c1=O read Toxoplasma: 1.951%; Pks13 thioesterase: -34.97%; PfKRS1: -0.8051%; CoaBC: 4.968%.
O=C(c1ncoc1C1CC1)N1CCN(CCOc2ccccc2)CC1 read Toxoplasma: -9.465%; Pks13 thioesterase: -20.3%; PfKRS1: -1.211%; CoaBC: 7.901%.
Cc1ccc(CN(CCCn2ccnc2)Cc2cnc(N(C)C)nc2)s1.O=C(O)CC(O)(CC(=O)O)C(=O)O read Toxoplasma: -5.874%.
[H][C@]12CC[C@]([H])(CN(C(=O)C3CCC3)C1)N(S(=O)(=O)c1ccccc1)C2 read Toxoplasma: 0%.
O=C1CNc2ncnc(Nc3cnn(Cc4ccccc4F)c3)c2N1 read Toxoplasma: -11.53%; Pks13 thioesterase: 12.76%; PfKRS1: -0.389%; CoaBC: -1.928%.
NC(=O)c1ccc2c(c1)nc1n2CCN(Cc2ccccc2)C1 read Toxoplasma: 2.966%; Pks13 thioesterase: -21.68%; PfKRS1: 8.578%; CoaBC: 3.914%.
N#Cc1cc(NS(=O)(=O)CC2CCCCO2)ccc1F (stereo not given) read Toxoplasma: -13.22%; Pks13 thioesterase: -24.38%; PfKRS1: 4.79%; CoaBC: -3.388%.
O=C(NCc1ccc(F)cc1)N1CCN(CC(O)C2CC2)CC1 (stereo not given) read Pks13 thioesterase: -10.88%; PfKRS1: 4.798%; CoaBC: 4.084%.
CCCN1CCCC2(CCN(S(=O)(=O)c3cc(C)nn3CC)C2)C1=O (stereo not given) read Pks13 thioesterase: -17.01%; PfKRS1: 0.5879%; CoaBC: -0.369%.

For reference, 3 entries once more:

{"structure": "COc1cccc(OCCCc2cncc(C(N)=O)c2)c1", "Toxoplasma": 12.52, "Pks13 thioesterase": 16.51, "PfKRS1": 4.723, "CoaBC": 7.477}
{"structure": "O=C(c1ncoc1C1CC1)N1CCN(CCOc2ccccc2)CC1", "Toxoplasma": -9.465, "Pks13 thioesterase": -20.3, "PfKRS1": -1.211, "CoaBC": 7.901}
{"structure": "Cc1nn(CC(=O)O)c2nccc(-c3ccc(F)cc3)c12", "Toxoplasma": -1.522, "Pks13 thioesterase": -1.842, "PfKRS1": -0.6407, "CoaBC": 0.9639}